From patent US12168673B2 (Mitopower, Inc., priority 2022, dated 2024)
Some of these results come from one statement about several compounds together.

Experiments:
HepG2 cells = assay: Cellular NAD+ levels in HepG2 cells, NAD cycling assay; type: cell-based; settings: HepG2, 10 μM, 50 μM, 100 μM and 250 μM, four hours of incubation
Experimental: HepG2 cells were seeded at densities of 1 million cells per well in a 6 well plate. The next day, cells were treated with test compounds for 4 hours and were harvested using the below protocol. Each well was washed once with 2 mL ice cold PBS which was removed and 400 μL 2M HClO4 (perchloric acid) was added to each well, which was scraped and the residue transferred to 1.5 mL tubes and spun down. 100 μL of the supernatant was transferred to a clean 1.5 mL vial and 150 μL KOH/MOPS 2M/0.6M (neutralization buffer) was added to each vial under vortex which was spun down. The pH was measured following the NAD cycling protocol.
NAD standards were prepared from 0 to 0.5 μM in water as per Table 7.
The cycling reaction was prepared as follows. 10 μl samples were added followed by water to bring the volume up to 25 μl. 25 μl of each standard was used in duplicates for the reaction. Then 50 μl of mix A (cycling mix) was added to the sample and standards. Mix A contained the following:
Reaction was initiated using 25 μL enzyme mix (15 U/ml of alcohol dehydrogenase+15 U/mL of malate dehydrogenase). The samples were incubated at 37° C. for 30 minutes in a water bath and the reaction terminated by heating in a water bath for 5 minutes at 80° C. Then 25 μl of the sample was used in the detection step. 100 μl mix B, which contains following components were added to the sample.
Reaction was initiated using a start reagent (prepared by mixing 10 μl of malate dehydrogenase and 10 μl of glutamate oxaloacetic transaminase in 1 ml of water. The reading were measured at 340 nm in a envision plate reader. The results are shown in FIGS. 4A-4D.

Plasma stability = settings: 5 μM, 0-2 Hrs

Structure (SMILES) | NAD+ level increase compared to untreated cells (HepG2 cells) | degradation of the parent molecule in human plasma (in words) (Plasma stability)
COC(=O)[C@@H](C)N[P@](=O)(OC[C@H]1OC(OC(=O)c2cccnc2)[C@H](O)[C@@H]1O)Oc1ccccc1 (single isomer, unassigned) [Compound 103] | showed an increase | slow degradation of the parent molecule
COC(=O)[C@@H](C)N[P@@](=O)(OC[C@H]1OC(OC(=O)c2cccnc2)[C@H](O)[C@@H]1O)Oc1ccccc1 (single isomer, unassigned) [Compound 104] | showed an increase | slow degradation of the parent molecule
COC(=O)[C@@H](C)NP(=O)(OC[C@H]1OC(OC(=O)c2cccnc2)[C@H](O)[C@@H]1O)Oc1ccccc1 (stereo partly drawn) [Compound 101, (3R, 4S, 5R)-3,4-dihydroxy-5-(((((1-methoxy-1-oxopropan-2-yl)amino)(phenoxy)phosphoryl)oxy)methyl)tetrahydrofuran-2-yl nicotinate] | showed an increase | slow degradation of the parent molecule
CC(C)OC(=O)[C@@H](C)N[P@](=O)(OC[C@H]1OC(OC(=O)c2cccnc2)[C@H](O)[C@@H]1O)Oc1ccccc1 (stereo partly drawn) [Compound 105, ((2S,3R,4S,5R)-3,4-dihydroxy-5-((((S)—(((S)-1-isopropoxy-1-oxopropan-2-yl)amino)(phenoxy)phosphoryl)oxy)methyl)tetrahydrofuran-2-yl nicotinate] | showed an increase | 
